Results are given in words; binding and its absence hold for the method and conditions named. Some binding calls cover weakened binding; strength is not graded here.
Biological target: T1, Tbx1 (mouse (endogenous in P19Cl6)) (UniProt P70323)
T1 sequence: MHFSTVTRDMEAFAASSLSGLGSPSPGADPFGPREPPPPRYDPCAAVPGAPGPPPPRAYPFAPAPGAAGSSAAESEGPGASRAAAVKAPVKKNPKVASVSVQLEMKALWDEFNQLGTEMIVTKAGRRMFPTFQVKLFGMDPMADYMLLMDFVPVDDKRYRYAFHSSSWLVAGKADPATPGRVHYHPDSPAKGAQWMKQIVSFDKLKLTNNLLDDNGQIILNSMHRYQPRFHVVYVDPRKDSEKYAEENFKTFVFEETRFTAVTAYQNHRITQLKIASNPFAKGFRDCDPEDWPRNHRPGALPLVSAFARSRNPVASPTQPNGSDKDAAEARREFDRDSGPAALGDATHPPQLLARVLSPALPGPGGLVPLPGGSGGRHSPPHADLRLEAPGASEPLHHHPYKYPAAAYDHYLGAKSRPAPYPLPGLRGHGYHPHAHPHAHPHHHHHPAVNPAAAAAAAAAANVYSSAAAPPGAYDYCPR
Experiment: ChIP-western blot; formaldehyde cross-linked, sonicated chromatin of differentiating P19Cl6 cells precipitated with anti-Tbx1 antibody or rabbit IgG (control); immunoprecipitates analysed by western blot; endogenous proteins

Protein sequences, listed by entry. Tags and fused reporters are not part of them.
UniProt O08550: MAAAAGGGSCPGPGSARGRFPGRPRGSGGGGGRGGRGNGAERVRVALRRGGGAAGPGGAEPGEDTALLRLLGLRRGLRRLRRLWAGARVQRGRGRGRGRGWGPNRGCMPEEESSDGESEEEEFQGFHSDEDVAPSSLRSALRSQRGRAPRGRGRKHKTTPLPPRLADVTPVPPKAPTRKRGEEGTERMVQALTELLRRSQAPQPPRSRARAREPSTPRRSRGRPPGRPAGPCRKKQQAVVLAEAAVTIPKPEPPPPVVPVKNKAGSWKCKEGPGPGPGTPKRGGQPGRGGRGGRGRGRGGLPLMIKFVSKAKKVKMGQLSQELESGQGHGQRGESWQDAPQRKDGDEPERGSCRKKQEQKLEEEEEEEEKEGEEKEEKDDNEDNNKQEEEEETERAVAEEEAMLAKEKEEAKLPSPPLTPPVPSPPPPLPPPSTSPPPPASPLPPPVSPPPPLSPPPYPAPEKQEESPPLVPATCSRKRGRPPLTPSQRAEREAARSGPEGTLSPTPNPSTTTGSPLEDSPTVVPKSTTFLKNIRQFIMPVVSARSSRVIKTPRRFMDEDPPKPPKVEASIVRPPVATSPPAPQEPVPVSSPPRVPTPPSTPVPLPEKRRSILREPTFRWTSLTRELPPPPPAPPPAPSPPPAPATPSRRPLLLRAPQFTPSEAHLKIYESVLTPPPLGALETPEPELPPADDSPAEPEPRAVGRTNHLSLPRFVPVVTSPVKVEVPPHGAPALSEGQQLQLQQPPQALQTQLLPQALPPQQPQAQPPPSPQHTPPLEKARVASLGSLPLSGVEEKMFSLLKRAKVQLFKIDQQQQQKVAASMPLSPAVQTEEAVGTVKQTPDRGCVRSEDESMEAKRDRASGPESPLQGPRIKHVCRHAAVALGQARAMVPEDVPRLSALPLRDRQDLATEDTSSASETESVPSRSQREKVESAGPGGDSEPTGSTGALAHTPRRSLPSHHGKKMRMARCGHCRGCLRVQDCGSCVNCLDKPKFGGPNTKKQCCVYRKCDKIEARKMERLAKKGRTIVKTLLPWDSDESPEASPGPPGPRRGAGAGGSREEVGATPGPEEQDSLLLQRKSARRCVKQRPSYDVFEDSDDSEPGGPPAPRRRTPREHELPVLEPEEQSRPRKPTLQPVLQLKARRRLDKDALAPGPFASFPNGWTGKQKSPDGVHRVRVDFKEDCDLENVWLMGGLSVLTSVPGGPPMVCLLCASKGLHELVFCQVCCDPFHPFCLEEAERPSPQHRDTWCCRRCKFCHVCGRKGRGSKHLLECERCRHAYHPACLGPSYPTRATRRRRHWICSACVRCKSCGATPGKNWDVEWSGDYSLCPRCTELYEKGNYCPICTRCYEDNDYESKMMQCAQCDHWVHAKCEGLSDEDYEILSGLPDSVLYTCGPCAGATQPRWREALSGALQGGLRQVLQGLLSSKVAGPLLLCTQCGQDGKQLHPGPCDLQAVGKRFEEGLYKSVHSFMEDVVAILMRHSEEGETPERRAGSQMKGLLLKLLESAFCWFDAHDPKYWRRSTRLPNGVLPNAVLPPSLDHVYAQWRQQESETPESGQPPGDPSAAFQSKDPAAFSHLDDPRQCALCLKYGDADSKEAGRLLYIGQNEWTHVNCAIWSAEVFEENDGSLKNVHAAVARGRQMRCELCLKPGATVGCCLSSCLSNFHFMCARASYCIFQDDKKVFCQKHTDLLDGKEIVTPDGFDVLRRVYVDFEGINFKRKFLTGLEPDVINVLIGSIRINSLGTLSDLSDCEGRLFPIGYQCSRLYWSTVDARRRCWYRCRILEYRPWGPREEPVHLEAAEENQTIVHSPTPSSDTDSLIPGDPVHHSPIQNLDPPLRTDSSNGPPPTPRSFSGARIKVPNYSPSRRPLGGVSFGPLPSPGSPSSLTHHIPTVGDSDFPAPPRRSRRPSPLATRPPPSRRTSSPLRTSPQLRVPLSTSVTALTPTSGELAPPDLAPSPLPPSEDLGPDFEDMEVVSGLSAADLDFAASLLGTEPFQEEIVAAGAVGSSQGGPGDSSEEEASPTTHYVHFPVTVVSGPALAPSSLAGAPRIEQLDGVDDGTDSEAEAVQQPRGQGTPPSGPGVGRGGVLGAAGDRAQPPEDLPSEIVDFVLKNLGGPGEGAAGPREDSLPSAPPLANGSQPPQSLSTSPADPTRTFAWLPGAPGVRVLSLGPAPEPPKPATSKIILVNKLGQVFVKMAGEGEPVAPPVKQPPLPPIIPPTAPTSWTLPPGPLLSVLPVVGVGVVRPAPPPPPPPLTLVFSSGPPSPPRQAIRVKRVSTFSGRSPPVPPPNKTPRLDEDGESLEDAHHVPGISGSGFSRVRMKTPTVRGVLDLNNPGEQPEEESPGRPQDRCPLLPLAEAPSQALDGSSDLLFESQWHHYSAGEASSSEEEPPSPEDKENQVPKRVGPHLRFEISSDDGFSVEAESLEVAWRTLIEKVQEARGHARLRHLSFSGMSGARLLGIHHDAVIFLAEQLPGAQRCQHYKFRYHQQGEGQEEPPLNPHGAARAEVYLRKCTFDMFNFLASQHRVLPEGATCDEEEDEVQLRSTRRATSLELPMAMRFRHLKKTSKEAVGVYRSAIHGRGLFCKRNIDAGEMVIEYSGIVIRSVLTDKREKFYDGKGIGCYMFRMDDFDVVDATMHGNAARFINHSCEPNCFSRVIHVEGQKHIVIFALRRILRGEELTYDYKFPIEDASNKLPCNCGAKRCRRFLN

| Substance | binding |
| --- | --- |
| Kmt2a (from UniProt P55200 1-3966) (enzyme) | binds |
| Kmt2b (from UniProt O08550 1-2713) (enzyme) | binds |

Source: PMC4895808
